# Test results as given in US10765748B2, “Composition and methods for tethering bioactive peptides to metal oxide surfaces” (University of Akron, priority 2014, dated 2020).
# Peptide text beside a SMILES is read from it. * marks the point of attachment. X1 = O=C(CCc1ccc(O)c(O)c1)NCCCC[C@H](NC(=O)CCc1ccc(O)c(O)c1)C(=O)*; Dihydrocaffeoyl = O=C(CCc1ccc(O)c(O)c1)*
# Experiment: XPS of immobilized modular peptides on TiO2 substrates and retention in HEPES buffer
# Assay type: physicochemical
# Details: high resolution XPS after immobilization
# Method: Immobilization of peptides onto TiO2 surface was accomplished by immersing the TiO2 substrates into the corresponding modular peptide solution and incubating it overnight at ambient temperature. The successful immobilization of OGP-Cat and OGP-(Cat)4 onto TiO2-coated substrates were confirmed by XPS. Nitrogen is the element contained only in the modular peptides while not in bare TiO2, as shown in the XPS survey scan of bare TiO2 and OGP-(Cat)4 in FIG. 9A. […] It is noted that the N1s peaks in FIG. 9B are normalized to the highest intensity (O1s) for comparison of the signal to noise ratio.
# To quantify the increase in nitrogen due to adsorption of OGP-Cat and OGP-(Cat)4, the nitrogen content (N1s) was normalized with Ti content (Ti2p), and compared with TiO2 substrate after incubation in HEPES buffer overnight (TiO2 as control), as show in Table 2, below.
# To study the stability of sequestered modular peptides on targeting surfaces, the modular peptide immobilized TiO2 substrates were immersed in 25 mM HEPES buffer (pH=7.4 at 25° C.) and incubated for different durations. The mean intensity of FITC-labeled OGP-Cat immobilized TiO2 substrates after incubation was quantified to detect the diffusion of FITC-labeled OGP-Cat into surrounding solution. (See FIG. 11). […] Because the N1s signals were assigned to the modular peptides, the decrease of N1s corresponds to the dissociation of adsorbed peptides from TiO2 surface. […] It is believed that the mismatch of retention time for the monovalent ligands may be attributed to the sensitivity difference of XPS and fluorescence microscopy. Nevertheless, the tetravalent ligands OGP-(Cat)4 were clearly present on the TiO2 surface beyond 2 weeks, which is enough to trigger the cascade signaling reactions in adjacent cells.
# OGP-(Cat)n and OGP-PEG-(Cat)n (n=1, 2, 4) were dissolved in HEPES buffer at concentrations of 50 μmol/L. Substrates were immersed into the solution (800 μL for 20 mm×20 mm glass slides, 500 μL for 5 mm×5 mm silica wafer) and incubated at ambient temperature overnight. After that, the substrates were rinsed thoroughly with water to wash away the unbounded molecules, dried with nitrogen and subjected to further study.
# X-ray photoelectron spectroscopy (XPS) was used to confirm the presence of the OGP peptide on the surface of the substrate by the presence of nitrogen. The XPS measurements were performed on a Kratos AXIS Ultra DLD spectrometer. The X-ray source was monochromated Al Kα, scanning over a binding-energy range of (0 to 700) eV with a dwell time of 100 ms. The analyzer pass energy was 110 eV for the survey spectra and 11 eV for the high-resolution C1s, N1s, and O1s scans. Each spectrum was collected over a 300×700 μm sample area. The results are reported in FIGS. 7, 9A-D, 12, 13, and 17.
compound,measurement,value
O=C(O)CNC(=O)CNC(=O)[C@H](Cc1ccccc1)NC(=O)CNC(=O)[C@H](Cc1ccc(O)cc1)NC(=O)[C@H](CCCCNC(=O)[C@H](CCCCNC(=O)CCc1ccc(O)c(O)c1)NC(=O)CCc1ccc(O)c(O)c1)NC(=O)[C@H](CCCCNC(=O)CCc1ccc(O)c(O)c1)NC(=O)CCc1ccc(O)c(O)c1 [OGP-(Cat)4] (Dihydrocaffeoyl-K(Dihydrocaffeoyl)K(X1)YGFGG-OH),atomic ratio C2/C1,0.24
same,atomic ratio C3/C1,0.29
same,atomic ratio C3/N,0.93
same,atomic ratio O2/O1,0.39
same,atomic ratio O3/O1,0.21
